According to the supplement of paper PMC4840960:
Structures can show the parent of a compound that is named as a salt. ± gives the standard deviation of the averaged measurements. This is one part of the list. Plates or batches differ in their baseline, so values are only roughly comparable.

These compounds were tested on E18 rat cortical neuron-glia co-culture (assay: total nuclei (DAPI) / Olig2+ nuclei (ratio); higher = more depletion of OPC/OL lineage cells). Settings: 1 µM; treatment time: 8 days (DIV5-DIV13).
`CCN(CC)CC#CCOC(=O)C(O)(c1ccccc1)C1CCCCC1` (stereo unspecified) [Oxybutynin] showed a total nuclei of 2.98.
In the case of `OCc1cc(C(O)CNCCCCCCOCCCCc2ccccc2)ccc1O` (stereo unspecified) [Salmeterol], the total nuclei is reported as 4.08.
For `O=C(N[C@H](CO)[C@H](O)c1ccc([N+](=O)[O-])cc1)C(Cl)Cl` [Chloramphenicol], the total nuclei was > 40.
`CNCCC(Oc1ccc(C(F)(F)F)cc1)c1ccccc1` (stereo unspecified) [Fluoxetine hydrochloride] gave a total nuclei of 4.
With `CC(=O)Nc1ccc(CC(=O)O)cc1` [Actarit] the total nuclei was 3.35.
`C[C@H]1O[C@H](O[C@H]2[C@H](O)[C@@H](O)[C@@H](O[C@H]3[C@H](O)[C@@H](O)C(O)O[C@@H]3CO)O[C@@H]2CO)[C@H](O)[C@@H](O)[C@@H]1N[C@H]1C=C(CO)[C@@H](O)[C@H](O)[C@H]1O` (stereo partly specified) [Acarbose] was tested, and the total nuclei was 3.
In the case of `CC(C)(C(=O)c1cccnc1)c1cccnc1` [Metyrapone], the total nuclei is reported as 3.3.
Work on `Cc1ccc(-c2cc(C(F)(F)F)nn2-c2ccc(S(N)(=O)=O)cc2)cc1` [Celecoxib] yielded a total nuclei of 3.43.
`O=C1[C@H]2CCCC[C@H]2C(=O)N1CCCCN1CCN(c2nsc3ccccc23)CC1` [Perospirone] was tested, and the total nuclei was 4.05.
In the case of `O=C1CC2(CCCC2)CC(=O)N1CCCCN1CCN(c2ncccn2)CC1` [Buspirone], the total nuclei is reported as 2.38.
`CCCC(CCC)C(=O)O` [Valproic Acid] showed a total nuclei of 2.8.
With `Cc1cccc(C)c1NC(=O)C(C)N` (stereo unspecified) [Tocainide] the total nuclei was 3.71.
With `CCc1ccc(CCOc2ccc(CC3SC(=O)NC3=O)cc2)nc1` (stereo unspecified) [Pioglitazone] the total nuclei was 2.9.
Compound `OCCN(CCO)c1nc(N2CCCCC2)c2nc(N(CCO)CCO)nc(N3CCCCC3)c2n1` [Dipyridamole] has a total nuclei of 4.
With `Nc1ccc2cn[nH]c2c1` [6-Aminoindazole] the total nuclei was 3.5.
Compound `Clc1ccccc1CN1CCc2sccc2C1` [Ticlopidine] has a total nuclei of 2.6.
Compound `CCc1nc(N)nc(N)c1-c1ccc(Cl)cc1` [Pyrimethamine] has a total nuclei of 15.9.
Compound `O=C(O)c1cc(/N=N/c2ccc(S(=O)(=O)Nc3ccccn3)cc2)ccc1O` [Sulfasalazine] has a total nuclei of 2.88.
Work on `CNC[C@H](O)c1ccc(O)c(O)c1` [Epinephrine] yielded a total nuclei of 2.67.
In the case of `CN(Cc1cnc2nc(N)nc(N)c2n1)c1ccc(C(=O)N[C@@H](CCC(=O)O)C(=O)O)cc1` [Methotrexate], the total nuclei is reported as 23.4.
`Cc1[nH]c(=O)c(C#N)cc1-c1ccncc1` [Milrinone] showed a total nuclei of 2.92.
For `CC1(C)S[C@@H]2[C@H](NC(=O)[C@H](N)c3ccccc3)C(=O)N2[C@H]1C(=O)O` [Ampicillin], the total nuclei was 4.01.
For `OC(Cn1cncn1)(Cn1cncn1)c1ccc(F)cc1F` [Fluconazole], the total nuclei was 2.37.
`CC[N+](C)(C)c1cccc(O)c1` [Edrophonium] showed a total nuclei of 3.4.
`OCCOCCN1CCN(C2=Nc3ccccc3Sc3ccccc32)CC1` [Quetiapine hemifumarate] showed a total nuclei of 2.88.
Work on `CCCCNC(=O)NS(=O)(=O)c1ccc(C)cc1` [Tolbutamide] yielded a total nuclei of 2.9.
Compound `C[C@]12C[C@H](O)[C@H]3[C@@H](CCC4=CC(=O)CC[C@@]43C)[C@@H]1CC[C@@H]2C(=O)CO` [Corticosterone] has a total nuclei of 2.81.
Work on `NC(=O)N1c2ccccc2CC(=O)c2ccccc21` [Oxcarbazepine] yielded a total nuclei of 4.18.
With `CC[C@@]1(O)C(=O)OCc2c1cc1n(c2=O)Cc2cc3c(CN(C)C)c(O)ccc3nc2-1` [Topotecan] the total nuclei was > 40.
In the case of `CC1(C)O[C@@H]2C[C@H]3[C@@H]4C[C@H](F)C5=CC(=O)C=C[C@]5(C)[C@@]4(F)[C@@H](O)C[C@]3(C)[C@]2(C(=O)CO)O1` [Fluocinolone Acetonide], the total nuclei is reported as 3.34.
`Nc1nc(O)c2ncn(CCC(CO)CO)c2n1` [Penciclovir] was tested, and the total nuclei was 2.75.
Compound `CCOC(=O)[C@H](CCc1ccccc1)N[C@@H](C)C(=O)N1[C@H](C(=O)O)C[C@@H]2CCC[C@@H]21` [Ramipril] has a total nuclei of 4.45 ± 0.64.
`CCCCN1CCCCC1C(=O)Nc1c(C)cccc1C` (stereo unspecified) [Bupivacaine] showed a total nuclei of 2.78.
In the case of `Nc1nc(Cl)nc2c1ncn2[C@H]1C[C@H](O)[C@@H](CO)O1` [Cladribine], the total nuclei is reported as > 40.
`CCN1CCC[C@H]1CNC(=O)c1c(O)c(Cl)cc(Cl)c1OC` [Raclopride] gave a total nuclei of 4.64.
With `CC(Oc1c(Cl)cccc1Cl)C1=NCCN1` (stereo unspecified) [lofexidine] the total nuclei was 2.87.
Work on `COc1ccc2c(c1)c(CC(=O)O)c(C)n2C(=O)c1ccc(Cl)cc1` [Indomethacin] yielded a total nuclei of 3.61.
For `COc1ccc(CC(C)NCC(O)c2ccc(O)c(NC=O)c2)cc1` (stereo unspecified) [Formoterol], the total nuclei was 2.62.

Same assay, conditions: 5 µM; treatment time: 8 days (DIV5-DIV13)
Work on `CCN(CC)CC#CCOC(=O)C(O)(c1ccccc1)C1CCCCC1` (stereo unspecified) [Oxybutynin] yielded a total nuclei of 3.4.
In the case of `OCc1cc(C(O)CNCCCCCCOCCCCc2ccccc2)ccc1O` (stereo unspecified) [Salmeterol], the total nuclei is reported as 14.9.
`O=C(N[C@H](CO)[C@H](O)c1ccc([N+](=O)[O-])cc1)C(Cl)Cl` [Chloramphenicol] was tested, and the total nuclei was > 40.
With `CNCCC(Oc1ccc(C(F)(F)F)cc1)c1ccccc1` (stereo unspecified) [Fluoxetine hydrochloride] the total nuclei was > 40.
`CC(=O)Nc1ccc(CC(=O)O)cc1` [Actarit] showed a total nuclei of 3.7.
Compound `C[C@H]1O[C@H](O[C@H]2[C@H](O)[C@@H](O)[C@@H](O[C@H]3[C@H](O)[C@@H](O)C(O)O[C@@H]3CO)O[C@@H]2CO)[C@H](O)[C@@H](O)[C@@H]1N[C@H]1C=C(CO)[C@@H](O)[C@H](O)[C@H]1O` (stereo partly specified) [Acarbose] has a total nuclei of 2.9.
Work on `CC(C)(C(=O)c1cccnc1)c1cccnc1` [Metyrapone] yielded a total nuclei of 3.6.
`Cc1ccc(-c2cc(C(F)(F)F)nn2-c2ccc(S(N)(=O)=O)cc2)cc1` [Celecoxib] was tested, and the total nuclei was 4.2.
Work on `O=C1[C@H]2CCCC[C@H]2C(=O)N1CCCCN1CCN(c2nsc3ccccc23)CC1` [Perospirone] yielded a total nuclei of 5.
`O=C1CC2(CCCC2)CC(=O)N1CCCCN1CCN(c2ncccn2)CC1` [Buspirone] gave a total nuclei of 3.1.
`CCCC(CCC)C(=O)O` [Valproic Acid] gave a total nuclei of 2.8.
`Cc1cccc(C)c1NC(=O)C(C)N` (stereo unspecified) [Tocainide] was tested, and the total nuclei was > 40.
`CCc1ccc(CCOc2ccc(CC3SC(=O)NC3=O)cc2)nc1` (stereo unspecified) [Pioglitazone] was tested, and the total nuclei was 3.4.
`OCCN(CCO)c1nc(N2CCCCC2)c2nc(N(CCO)CCO)nc(N3CCCCC3)c2n1` [Dipyridamole] was tested, and the total nuclei was 4.9.
Compound `Nc1ccc2cn[nH]c2c1` [6-Aminoindazole] has a total nuclei of 2.8.
`Clc1ccccc1CN1CCc2sccc2C1` [Ticlopidine] was tested, and the total nuclei was 7.1.
Compound `CCc1nc(N)nc(N)c1-c1ccc(Cl)cc1` [Pyrimethamine] has a total nuclei of 28.8.
For `O=C(O)c1cc(/N=N/c2ccc(S(=O)(=O)Nc3ccccn3)cc2)ccc1O` [Sulfasalazine], the total nuclei was 2.9.
Work on `CNC[C@H](O)c1ccc(O)c(O)c1` [Epinephrine] yielded a total nuclei of 11.5.
Work on `CN(Cc1cnc2nc(N)nc(N)c2n1)c1ccc(C(=O)N[C@@H](CCC(=O)O)C(=O)O)cc1` [Methotrexate] yielded a total nuclei of 27.7.
For `Cc1[nH]c(=O)c(C#N)cc1-c1ccncc1` [Milrinone], the total nuclei was 3.3.
`CC1(C)S[C@@H]2[C@H](NC(=O)[C@H](N)c3ccccc3)C(=O)N2[C@H]1C(=O)O` [Ampicillin] was tested, and the total nuclei was 3.9.
Work on `OC(Cn1cncn1)(Cn1cncn1)c1ccc(F)cc1F` [Fluconazole] yielded a total nuclei of 2.3.
Work on `CC[N+](C)(C)c1cccc(O)c1` [Edrophonium] yielded a total nuclei of 3.
For `OCCOCCN1CCN(C2=Nc3ccccc3Sc3ccccc32)CC1` [Quetiapine hemifumarate], the total nuclei was 3.1.
For `CCCCNC(=O)NS(=O)(=O)c1ccc(C)cc1` [Tolbutamide], the total nuclei was 2.7.
`C[C@]12C[C@H](O)[C@H]3[C@@H](CCC4=CC(=O)CC[C@@]43C)[C@@H]1CC[C@@H]2C(=O)CO` [Corticosterone] gave a total nuclei of 2.8.
`NC(=O)N1c2ccccc2CC(=O)c2ccccc21` [Oxcarbazepine] gave a total nuclei of 24.4.
In the case of `CC[C@@]1(O)C(=O)OCc2c1cc1n(c2=O)Cc2cc3c(CN(C)C)c(O)ccc3nc2-1` [Topotecan], the total nuclei is reported as > 40.
`CC1(C)O[C@@H]2C[C@H]3[C@@H]4C[C@H](F)C5=CC(=O)C=C[C@]5(C)[C@@]4(F)[C@@H](O)C[C@]3(C)[C@]2(C(=O)CO)O1` [Fluocinolone Acetonide] showed a total nuclei of 3.5.
In the case of `Nc1nc(O)c2ncn(CCC(CO)CO)c2n1` [Penciclovir], the total nuclei is reported as 2.7.
Compound `CCOC(=O)[C@H](CCc1ccccc1)N[C@@H](C)C(=O)N1[C@H](C(=O)O)C[C@@H]2CCC[C@@H]21` [Ramipril] has a total nuclei of 4.35 ± 0.49.
With `CCCCN1CCCCC1C(=O)Nc1c(C)cccc1C` (stereo unspecified) [Bupivacaine] the total nuclei was 3.
`Nc1nc(Cl)nc2c1ncn2[C@H]1C[C@H](O)[C@@H](CO)O1` [Cladribine] was tested, and the total nuclei was > 40.
For `CCN1CCC[C@H]1CNC(=O)c1c(O)c(Cl)cc(Cl)c1OC` [Raclopride], the total nuclei was 4.7.
In the case of `CC(Oc1c(Cl)cccc1Cl)C1=NCCN1` (stereo unspecified) [lofexidine], the total nuclei is reported as 2.8.
In the case of `COc1ccc2c(c1)c(CC(=O)O)c(C)n2C(=O)c1ccc(Cl)cc1` [Indomethacin], the total nuclei is reported as 3.3.
`COc1ccc(CC(C)NCC(O)c2ccc(O)c(NC=O)c2)cc1` (stereo unspecified) [Formoterol] showed a total nuclei of 2.5.
